Experimental findings from publication PMC3196589, “Fluorescent Peptide Biosensor for Probing the Relative Abundance of Cyclin-Dependent Kinases in Living Cells” (PLoS ONE, 2011) are described below.

The assay deals with T1, Ctrl-FITC peptide.
T1 sequence (peptide, FITC on the unique cysteine): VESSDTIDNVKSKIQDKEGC
As to the kind of experiment: other fluorescence titration; 200 nM FITC-labelled peptide titrated with purified recombinant protein; 25°C; 200 ul potassium phosphate buffer, pH 7.2, 150 mM NaCl; 96-well microplates; excitation 485 nm, emission 520 nm; fit with a standard quadratic equation; both purified.

These are yes or no findings as the source states them, for the method shown.

Regarding GST-Cyclin A, the binding result was “no binding”.
